In patent US20040266742A1, “Combination therapy of an sodm and a corticosteroid for prevention and/or treatment of inflammatory disease” (priority 2001, published 2004):
For at least one compound, name, drawing or mass did not settle the structure. Some of these results come from one statement about several compounds together.

Tests used:
[1] = test system: collagen-induced arthritis; test: Collagen-induced arthritis in Lewis rats, clinical assessment (incidence, arthritic score); format: in vivo
[2] = relative potency; cited from earlier work
[3] = cited from earlier work

Row | SMILES | Amelioration of the extent of the arthritic response (protective effects) ([1]; M40403 2 mg/kg daily i.p., dexamethasone 0.01 mg/kg daily orally, alone or combined, from day 25) | Attenuation of the development of CIA and arthritic score ([1]; low doses alone: M40403 2 mg/kg i.p. or DEX 0.01 mg/kg p.o.) | Na+-retaining Potency [2] | Equivalent Dose [3] | Anti-inflammatory Potency ([3]; relative potency)
1 | [Cl-].[Cl-].[Mn+2].c1cc2nc(c1)CN[C@@H]1CCCC[C@H]1NCCN[C@@H]1CCCC[C@H]1NC2 [M40403] | 10-20% | 10-20% | – | – | –
2 | C[C@H]1C[C@H]2[C@@H]3CCC4=CC(=O)C=C[C@]4(C)[C@@]3(F)[C@@H](O)C[C@]2(C)[C@@]1(O)C(=O)CO [Betamethasone] | – | – | 0 | 0.75 mg | 25
3 | C[C@]12CCC(=O)C=C1CC[C@@H]1[C@@H]2C(=O)C[C@@]2(C)[C@H]1CC[C@]2(O)C(=O)CO [Cortisone] | – | – | – | 25 mg | –
